Reference: PubChem BioAssay AID1259415 (National Center for Advancing Translational Sciences (NCATS), 2018)
The campaign covered roughly 410,000 compounds. About 18,000 (4.4%) were called active. This list was built around the results that the source calls inconclusive (neither active nor inactive); the mix of calls is not that of the screen. Rule as the data show it: active = activity change below about -60%; inconclusive = no clear call, values can overlap the other calls; inactive = above about -39%.

assay: qHTS Assay for inhibitors of the human cytomegalovirus (HCMV); details: HFF cells, HCMV-luciferase reporter, 72 h; at 57.5 µM; active compounds read low
Summary of the method: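 Two-dose cell screen: HFF monolayers treated with compounds and infected with luciferase-expressing HCMV at 1 PFU/cell, 72 h at 37C, then lysed for luciferase measurement.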
% is scaled to controls: 0 for no effect and ±100 for the full control effect.

With `Cc1ccc(NC(=O)c2ccc(OCc3c(C)noc3C)cc2)cc1C` as the molecule, how does the activity change, negative = inhibition read?
Its activity change, negative = inhibition is inconclusive: 0%.

With `CC(C)(C)C(=O)Nc1sc2c(c1-c1nc3ccccc3[nH]1)CCCC2` as the molecule, how does the activity change, negative = inhibition read?
Its activity change, negative = inhibition is active: -107%.

Which activity change, negative = inhibition does the source give for `S=C(c1cn(CCOc2cccc3ccccc23)c2ccccc12)N1CCCC1` here?
The activity change, negative = inhibition was active: -76.7%.

With `Cc1ccc(CSc2nnc(SCC(=O)N/N=C/C=C/c3ccccc3[N+](=O)[O-])s2)cc1` as the molecule, how does the activity change, negative = inhibition read?
The activity change, negative = inhibition was active: -78.2%.

Which activity change, negative = inhibition does the source give for `COc1cccc(NC(=O)c2ccc(-c3ccc([N+](=O)[O-])cc3)o2)c1` here?
Its activity change, negative = inhibition is inconclusive: -51.3%.

For `COc1cc(OC)cc(C(=O)NNC(=O)c2ccccn2)c1`, which activity change, negative = inhibition is on record?
Its activity change, negative = inhibition is active: -97.8%.

For `O=C(CSc1nc(Nc2ccccc2)c2ccccc2n1)c1ccc(Cl)cc1`, which activity change, negative = inhibition is on record?
Its activity change, negative = inhibition is inconclusive: -52.4%.

With `CCOc1ccc(/C=N/NC(=O)c2ccncc2)cc1OC` as the molecule, how does the activity change, negative = inhibition read?
Its activity change, negative = inhibition is inactive: 71%.

Which activity change, negative = inhibition does the source give for `COc1cccc(CN(C(=O)Cc2c[nH]c3ccccc23)C(C(=O)NC2CCCCC2)c2ccc(C)o2)c1` (centres undefined) here?
Its activity change, negative = inhibition is inconclusive: -50.2%.

For `Cc1c(CNC2CCCCCC2)c(C(=O)O)c(C)n1Cc1cccc(Cl)c1`, which activity change, negative = inhibition is on record?
The activity change, negative = inhibition was inconclusive: -40.5%.

For `CC(C)C[C@H]1CN([C@@H](CC(C)C)CN2CCCC2CN2C(=S)NC[C@@H]2Cc2ccc(O)cc2)C(=S)N1CC1CCCCC1` (some centres undefined), which activity change, negative = inhibition is on record?
Its activity change, negative = inhibition is active: -107%.

For `CCCCn1c(N)c(N(CC(C)C)C(=O)CCCc2cccs2)c(=O)[nH]c1=O`, which activity change, negative = inhibition is on record?
The activity change, negative = inhibition was inconclusive: -55.3%.

Which activity change, negative = inhibition does the source give for `Oc1cccc(/C=N/NC(=S)Nc2cccnc2)c1O` here?
Its activity change, negative = inhibition is inactive: 91%.

For `CC(C)(C)C1CCc2c(sc(NC(=O)c3cccs3)c2C(N)=O)C1` (centres undefined), which activity change, negative = inhibition is on record?
Its activity change, negative = inhibition is inconclusive: -43.7%.

With `CN1CCC(N2CCN(C3CN(CCc4ccccc4)S(=O)(=O)C3)CC2)CC1` (centres undefined) as the molecule, how does the activity change, negative = inhibition read?
The activity change, negative = inhibition was inactive: 2.44%.

Which activity change, negative = inhibition does the source give for `CC(C)C[C@@H](CO)N1CCN(Cc2ccccc2)CCC1=O` here?
The activity change, negative = inhibition was inconclusive: -51.6%.

With `CC1CCc2c(sc3ncnc(NS(=O)(=O)c4cccs4)c23)C1` (centres undefined) as the molecule, how does the activity change, negative = inhibition read?
Its activity change, negative = inhibition is inconclusive: -45.8%.

With `O=C(NCCSCc1ccccc1)c1ccccc1` as the molecule, how does the activity change, negative = inhibition read?
Its activity change, negative = inhibition is inactive: -33.6%.

With `O=[N+]([O-])c1ccc(NCc2ccccc2N2CCC(CO)CC2)nc1` as the molecule, how does the activity change, negative = inhibition read?
The activity change, negative = inhibition was inactive: 41.2%.

Which activity change, negative = inhibition does the source give for `CCOC(=O)C1CCN(C(=O)CCc2nnc3ccc(N4CCC(C)CC4)nn23)CC1` here?
Its activity change, negative = inhibition is inconclusive: -52.2%.

With `COC(=O)c1c(NC(=O)/C=C/C(=O)O)sc(C)c1-c1ccc(C(C)C)cc1` as the molecule, how does the activity change, negative = inhibition read?
The activity change, negative = inhibition was inconclusive: -47.3%.

With `Cn1ccnc1SCC(=O)Nc1cccc(C(F)(F)F)c1` as the molecule, how does the activity change, negative = inhibition read?
The activity change, negative = inhibition was inactive: -1.4%.

With `CN(CCc1cn[nH]c1)C(=O)CC1C(=O)NCCN1Cc1ccccc1C(F)(F)F` (centres undefined) as the molecule, how does the activity change, negative = inhibition read?
The activity change, negative = inhibition was inconclusive: -53.7%.

For `Cn1c(=O)c2c(nc(N3CCCCCC3)n2Cc2cccc3ccccc23)n(C)c1=O`, which activity change, negative = inhibition is on record?
The activity change, negative = inhibition was inconclusive: -58.7%.
